We go through two substances from article PMC3050892.

In assay [1] the target is T1, human FEZ1 (221–392) (human) (UniProt Q99689).
T1 sequence: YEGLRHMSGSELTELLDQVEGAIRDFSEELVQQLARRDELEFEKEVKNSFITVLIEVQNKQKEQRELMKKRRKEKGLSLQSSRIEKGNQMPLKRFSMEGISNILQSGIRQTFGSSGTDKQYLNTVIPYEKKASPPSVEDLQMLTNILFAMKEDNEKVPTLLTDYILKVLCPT
As to the kind of experiment: two-hybrid; LexA-bait fusions (pBTM116) of FEZ2 (207-353), FEZ1 (221-392) or UNC-76 C-terminus against pACT2 prey clones in yeast L40; clones first isolated in library screens (human fetal brain and bone marrow cDNA) with the FEZ2 bait, then one representative clone of each prey tested one-to-one against the three baits; growth on minimal medium without Trp, Leu, His (10 mM 3-AT in the screen) and beta-galactosidase filter assay; in duplicate.

The target in assay [2] is T2, human FEZ2 (207–353) (human) (UniProt Q9UHY8).
T2 sequence: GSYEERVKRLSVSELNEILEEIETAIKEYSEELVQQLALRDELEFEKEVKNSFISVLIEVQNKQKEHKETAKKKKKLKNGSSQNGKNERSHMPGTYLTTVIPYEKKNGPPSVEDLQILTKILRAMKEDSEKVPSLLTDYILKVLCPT
The description is as above.

No constants are given. Whether binding was seen depends on the method and setting. A result given as binding can be weak or reduced; the word gives no strength.

With “general transcription factor II i repeat domain 2 (human) (domain or fragment)”, the results for the binding result in assay [1] and in assay [2] were “no binding” and “binds”, respectively.
As for “short coiled-coil protein, isoform CRA_a (human) (domain or fragment)”, the binding entry in assay [1] and in assay [2] was “binds” in each case.
